Data from PubChem BioAssay AID493014 (National Center for Advancing Translational Sciences (NCATS), 2011).
The list shows a part of the results. Further columns of the screen follow, without active or inactive calls. Compounds called inactive in the main read-out are mostly missing here. Potencies come from curve fits of mixed quality, noted in brackets.

Assay: qHTS Assay to Find Inhibitors of Chronic Active B-Cell Receptor Signaling
Conditions: ABC-DLBCL IkBa-CBG/CBR reporter, luminescence ratio (green luciferase fused to IkBa over red control in TMD8 lymphoma cells), 4 h
How it was run: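 Doxycycline induced both beetle luciferases in TMD8 lymphoma cells; IKK-driven degradation limits the IkappaBalpha-fused green signal, while red luminescence normalises for cell number and nonspecific effects. Compounds tested up to 46 uM, 4 hrs.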

[1] = measured here: CBR red luminescence, cell number
[2] = measured here: IkBa-CBG green luminescence

CN(C)C(CNC(=O)c1ccc(NS(=O)(=O)c2ccc(F)c(F)c2)cc1)c1ccccc1 (configuration not stated)
AC50 [1]: 14.6 µM [falling, single point]

COCCn1c(=N)c(S(=O)(=O)c2ccc(Br)cc2)cc2c(=O)n3ccccc3nc21
AC50 [1]: 25.1 µM [rising, partial curve, poor fit]

COc1ccc(-c2cc(C(F)(F)F)n3nc(C(=O)Nc4c(C)n(C)n(-c5ccccc5)c4=O)c(Cl)c3n2)cc1
AC50 [1]: 1.78 µM [rising, partial curve]

CCCn1c(C(C)Nc2nc(-c3cc(Cl)c(N)c(Cl)c3)cs2)nc2cc(Cl)c(N3CCCCC3)cc21 (configuration not stated)
AC50 [1]: 6.31 µM [falling, partial curve]

O=C(COC(=O)c1cc(Br)ccc1O)Nc1ccc2c(c1)OCCO2
AC50 [1]: 5.17 µM [falling, full curve]

Cc1ccoc1C(=O)N1CCN(C(=O)c2occc2C)CC1
AC50 [1]: 31.6 µM [rising, partial curve, poor fit]

COC(=O)c1scc(S(C)(=O)=O)c1-n1cccc1
AC50 [1]: 35.5 µM [rising, single point]

O=C(/C=C\Nc1ccc(S(=O)(=O)Nc2ncccn2)cc1)c1ccccc1
AC50 [1]: 4.47 µM [rising, partial curve, poor fit]

CCc1nc(SCC(=O)N2c3ccccc3CC2C)c2c(C)c(C)sc2n1 (configuration not stated)
AC50 [1]: 2.51 µM [falling, full curve, poor fit]

COc1ccc(N(CC(=O)NCc2ccc(C)cc2)S(=O)(=O)c2c(C)noc2C)cc1
AC50 [1]: 20 µM [rising, single point]

Cc1ccc(CNC(=O)CCSCc2cccc(F)c2)cc1
AC50 [1]: 35.5 µM [rising, single point]

Cc1ccc(NS(=O)(=O)c2cccc(C(=O)Nc3cc(C)on3)c2)cc1
AC50 [1]: 14.6 µM [falling, partial curve, poor fit]

Cc1ccc2cc3cc(C(=O)N4CCN(C(=O)c5ccco5)CC4)sc3nc2c1
AC50 [1]: 0.731 µM [rising, partial curve, poor fit]

COc1cc(Cn2c(-c3ccc(O)c(OC)c3)nc3ccccc32)ccc1O
AC50 [1]: 8.91 µM [falling, partial curve, poor fit]

CN(C)N1C(N)=C(C#N)C(c2ccsc2)C2=C1CCCC2=O (configuration not stated)
AC50 [1]: 29.1 µM [falling, single point]

Oc1ccc(N=Nc2nc(-c3ccccc3)c(-c3ccccc3)[nH]2)cc1
AC50 [2]: 4.61 µM [falling, partial curve, poor fit]

CCOc1ccc(S(=O)(=O)Nc2ccc3oc(C)c(C(=O)OCCOC)c3c2)cc1
AC50 [1]: 28.2 µM [rising, single point] | AC50 [2]: 15.8 µM [falling, partial curve]

COc1ccc(Cl)cc1N1C(=O)C2CCCN2C1c1ccc(F)cc1 (configuration not stated)
AC50 [1]: 6.51 µM [falling, single point]

CCN1C(=O)CC(NCc2ccc3c(c2)OCO3)C1=O (configuration not stated)
AC50 [1]: 2.06 µM [rising, partial curve, poor fit]

CCOc1nc(-c2ccc(OC)cc2)ccc1-c1noc(C)n1
AC50 [1]: 3.66 µM [rising, full curve]

CC(=O)n1c2ccccc2c2c1c1ccccc1n2C
AC50 [1]: 2.51 µM [falling, full curve]

COc1cc(NS(=O)(=O)c2c(C)[nH]c(C)c2C(=O)N2CCCC2)cc(OC)c1OC
AC50 [1]: 3.16 µM [rising, single point]

Cc1ccc(NC(=O)COC(=O)[C@@H]2CCCN2C(=O)c2cccs2)cc1S(=O)(=O)N(C)C
AC50 [1]: 8.91 µM [rising, partial curve, poor fit]

COc1cc2c(cc1OC)-c1n[nH]c(=S)n1C(C)(C)C2
AC50 [1]: 4.47 µM [rising, full curve, poor fit]

COc1ccc(-c2cc3cc(C(=O)O)ccn3c2C(=O)c2ccccc2)cc1
AC50 [1]: 31.6 µM [rising, single point]

COCCNC(=O)C(c1ccco1)N(C(=O)Cn1nnc2ccccc21)c1cccc(C)c1C (configuration not stated)
AC50 [1]: 3.66 µM [rising, partial curve, poor fit]

COCC(C)NC(=O)c1cc(-c2ccccc2OC)on1 (configuration not stated)
AC50 [1]: 1 µM [falling, full curve]

O=C(N/N=C/c1ccc(Br)s1)c1cccc([N+](=O)[O-])c1
AC50 [1]: 29.1 µM [rising, single point]

CCOC(=O)c1ncn2c1CN(C)C(=O)c1cc(F)ccc1-2
AC50 [1]: 4.61 µM [rising, full curve]

COCC(=O)NCCc1nc(-c2ccccc2)cs1
AC50 [1]: 5.62 µM [rising, single point]

O=C(NCc1ccc(-c2nc3ccccc3s2)cc1)c1ccc(Br)o1
AC50 [1]: 10.3 µM [rising, partial curve]

COc1cc(/C=C/c2ccc(O)cc2)cc(OC)c1
AC50 [2]: 11.2 µM [falling, partial curve]

CCOC(=O)C1=C(C)c2ccccc2N(S(=O)(=O)C(F)(F)F)C1C(=O)OCC (configuration not stated)
AC50 [1]: 23.1 µM [rising, single point]

O=[N+]([O-])c1ccc(Sc2nc3ccccc3o2)c([N+](=O)[O-])c1
AC50 [1]: 0.00517 µM [rising, full curve, poor fit] | AC50 [2]: 5.8 µM [falling, full curve]

C/C(=N\NC(=O)CNC(=O)c1cccs1)c1ccc(Cl)c(Cl)c1
AC50 [1]: 6.31 µM [rising, partial curve, poor fit]

CCn1ncc2c1C(=O)NC1c3ccccc3C(=O)N21 (configuration not stated)
AC50 [1]: 15.8 µM [falling, single point]

CCc1ccc(CN(C)C(=O)c2cc(COc3cccc(C(F)(F)F)c3)on2)nc1
AC50 [1]: 0.0891 µM [falling, full curve, poor fit]

CC(=O)NC1=NN(C(C)=O)C(C)(CS(=O)(=O)c2ccc3ccccc3c2)S1 (configuration not stated)
AC50 [1]: 32.6 µM [rising, partial curve, poor fit]

CCOC(=O)c1ccc(NC(=O)Nc2ccc3c(c2)OCCO3)cc1
AC50 [1]: 16.4 µM [falling, partial curve]

CCOC(=O)c1c(NC(=O)c2ccoc2C)sc(C(=O)N(C)C)c1C
AC50 [1]: 29.1 µM [falling, single point]

O=C(CSc1nc2nn(-c3ccccc3)c(=O)c-2c2n1CCCCC2)c1ccc(O)c(O)c1
AC50 [1]: 20.6 µM [rising, single point]

O=C(Nc1ccccc1Oc1ccccc1)c1cc([N+](=O)[O-])ccc1Cl
AC50 [1]: 5.17 µM [falling, partial curve]

NCCCNc1nc(N)c([N+](=O)[O-])c(NC2CCCCC2)n1
AC50 [1]: 20 µM [falling, partial curve, poor fit]

COc1ccc(C2(C)NC(=O)N(CC(=O)NCc3ccccc3F)C2=O)cc1 (configuration not stated)
AC50 [1]: 5.62 µM [rising, single point]

Nc1cc(=O)[nH]c(SCCNS(=O)(=O)c2ccccc2)n1
AC50 [1]: 15.8 µM [rising, partial curve, poor fit]

Cc1ccnc(NC(=O)/C=C/c2cccs2)c1
AC50 [1]: 5.8 µM [falling, full curve]

N/C(Cc1nc(-c2ccc(F)cc2)cs1)=N\O
AC50 [1]: 35.5 µM [rising, single point]

O=C(Nc1ccccc1)Nc1nnc(-c2cccs2)s1
AC50 [1]: 0.00411 µM [rising, full curve, poor fit]

CC/C(=N/O)c1cnnc(SC)n1
AC50 [1]: 5.8 µM [rising, single point]

O=C(O)C1CCN(C(=O)c2cc(F)cc3c2OCOC3)CC1
AC50 [1]: 28.2 µM [falling, single point]

O=c1c2ccccc2nc(COc2ccccc2)n1/N=C/c1cc([N+](=O)[O-])ccc1O
AC50 [1]: 1.46 µM [falling, full curve]

CCC(=O)Nc1ccc(Cl)c(NC(=O)c2c(OC)cccc2OC)c1
AC50 [2]: 11.2 µM [falling, partial curve, poor fit]

CN(C)c1ccc(C(=O)OCC(=O)N2CCCC2)cc1
AC50 [1]: 35.5 µM [falling, single point]

COc1ccc(-c2nnc(-c3cccs3)o2)cc1OC
AC50 [1]: 25.9 µM [falling, single point]

Cc1cc(C)n(Cc2cccc(C(=O)N/N=C/c3cccnc3)c2)n1
AC50 [1]: 31.6 µM [falling, single point]

Cc1ccc(C)c(/C=N/NC(=S)NC(C)C)c1
AC50 [1]: 29.1 µM [rising, single point] | AC50 [2]: 20.6 µM [falling, partial curve, poor fit]

CC1(C)CC(=O)C2=C(C1)Nc1ccccc1NC2c1cccs1 (configuration not stated)
AC50 [1]: 22.4 µM [rising, single point]

CC(NC(=O)CCC(=O)c1ccccc1)c1ccc(F)cc1 (configuration not stated)
AC50 [1]: 1.16 µM [rising, partial curve, poor fit]

COc1cccc(/C=N/NC(=S)Nc2cccc(S(=O)(=O)N(C)C)c2)c1
AC50 [1]: 1.26 µM [falling, full curve] | AC50 [2]: 3.98 µM [falling, full curve, poor fit]

O=C(CCCCCN1C(=O)[C@@H]2Cc3ccccc3CN2C1=O)Nc1cccc(F)c1
AC50 [1]: 35.5 µM [falling, single point]

CC1(c2ccc(Cl)cc2)NC(=S)N2C1NC(=S)N2c1ccccc1 (configuration not stated)
AC50 [1]: 35.5 µM [falling, single point]

Cc1ccc(N2Cc3ccccc3C2=S)cc1
AC50 [1]: 20 µM [rising, partial curve, poor fit]

CN(C)CCCNS(=O)(=O)c1ccc(Oc2ncc(C(F)(F)F)cc2Cl)cc1
AC50 [1]: 18.4 µM [falling, partial curve]
